Measured values taken from article PMC4455283, “Crystal structure of TRIM20 C-terminal coiled-coil/B30.2 fragment: implications for the recognition of higher order oligomers” (Scientific Reports, 2015).
These are yes or no findings as the source states them, for the method shown.

Molecular target: isolated TRIM20 B30.2 domain (human) (UniProt O15553)
Test: AUC; sedimentation velocity analytical ultracentrifugation at 4 °C; both purified

B1: isolated TRIM20 B30.2 domain (domain or fragment, UniProt O15553 577-781)
chain: TLRSEMEMFNVPELIGAQAHAVNVILDAETAYPNLIFSDDLKSVRLGNKWERLPDGPQRFDSCIIVLGSPSFLSGRRYWEVEVGDKTAWILGACKTSISRKGNMTLSPENGYWVVIMMKENEYQASSVPPTRLLIKEPPKRVGIFVDYRVGSISFYNVTARSHIYTFASCSFSGPLQPIFSPGTRDGGKNTAPLTICPVGGQGPD
binding: no binding
